Assay results taken from patent US11254700B2, “GSK-3β inhibitors and use thereof in methods of treatment” (UNIVERSITY OF HAWAII, priority 2017, dated 2022).

Conditions: PAMPA, 5 h, 20 μM, pH 7.4
Method: Samples were run in quadruplicate.
Oral administration is noninvasive and is preferred for chronical diseases such as Alzheimer's disease and other CNS disorders. […] In the PAMPA model, the amount of target compounds diffused from a donor compartment to an acceptor compartment through a tri-layer phospholipid pre-coated membrane are measured to assess oral-absorption potential of drug candidates. In the present study, 1, 4, 9, 17, 21 and 30 were evaluated with the PAMPA assay.

R (percent recovery): 40%
Structure (SMILES): CC(C)NCC(O)COc1ccc(CC(N)=O)cc1 (stereo not shown) [Atenolol, reference compound]
